PubChem BioAssay AID1259279 | Sanger Institute – 2017

Screen: 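Kinases that colorectal cancer cells need to survive, alone or with drugs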 (primary screen)
Cell system: LS180 human colorectal cancer cells
Reagent: siRNA pool against human genes
Treatment: anchor drug BYL719 at 1 µM, cetuximab at 5 µg/ml or trametinib at 10 nM, or DMSO vehicle only
Detection: 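Cell viability versus a non-targeting pool, as a fraction and as a robust z-score from replicate means, plus a synergy score for each of three drugs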
Reading the numbers: viability z-score, no drug: higher = more viable cells after knock-down; viability, no drug: higher = more viable cells; synergy score with BYL719 and synergy score with cetuximab and synergy score with trametinib: higher = stronger synthetic lethal synergy with drug
Active means: 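a knock-down is called active, meaning essential, if its viability z-score in vehicle alone falls below -3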
Calls: active = essential (knock-down alone cuts viability); inactive = no change without drug
This is a random part of 794 deposited reagents. In the full data, 11 (1.4%) are marked active. 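Calls reflect knock-down alone in the vehicle arm, not drug synergy.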 Entries without a mark were called inactive. Viability is capped at 1. Not stated in the record: the amount of reagent, the time to read-out.

gene knocked down	viability z-score, no drug	viability, no drug (fraction)	synergy score with BYL719	synergy score with cetuximab	synergy score with trametinib
CHD4	-0.457	0.856	0.0292	0.22	0.0357
STK32B	-0.38	0.865	0.0589	-0.00245	-0.0805
DYRK2	0.86	1	-0.113	0.0482	0.175
STK38L	-1.96	0.692	-0.0233	-0.00348	-0.0035
ALPK2	0.82	0.996	-0.0642	0.0319	-0.0759
TP53RK	0.0543	0.912	0.0414	0.0695	0.0587
PLK3	-0.178	0.887	-0.167	-0.0682	-0.0876
GUK1	-0.926	0.805	-0.169	-0.135	-0.0855
NUAK2	0.599	0.972	0.0766	-0.0435	0.159
HK1	0.86	1	-0.167	-0.11	-0.0313
STK35	0.248	0.933	-0.148	-0.104	0.0165
NME6	-0.225	0.882	-0.00168	0.0603	0.132
TSSK6	0.329	0.942	0.0206	-0.0999	0.0248
GUCY2F	0.86	1	-0.0678	-0.0558	0.0154
MSR1	0.716	0.984	0.068	0.0849	0.145
NEK10	0.86	1	0.0642	0.08	0.0095
TRPM6	0.86	1	-0.15	-0.111	-0.0583
MARK3	-0.529	0.849	0.00499	0.0911	0.181
BCOR	0.86	1	0.153	0.122	0.0385
PHKB	0.818	0.995	-0.133	-0.0617	0.0816
TPD52L3	0.656	0.978	-0.0125	-0.055	-0.0308
MAP3K10	0.86	1	-0.154	-0.166	-0.0742
ERBB3	-0.322	0.871	-0.112	-0.126	0.107
HASPIN	-0.265	0.877	-0.0183	0.00583	0.0248
MAPK13	0.802	0.994	-0.038	-0.171	-0.0197
STK31	-0.353	0.868	-0.0137	0.000192	-0.0026
UCK2	0.43	0.953	-0.00827	-0.0458	0.0398
MAPKAPK5	-1.69	0.722	-0.0681	-0.218	-0.139
AK7	0.813	0.995	-0.000631	-0.17	-0.0853
STK38	0.501	0.961	-0.0397	0.0852	0.0039
DYRK1A	-0.2	0.884	-0.089	-0.118	0.0414
PIK3CA	0.791	0.993	-0.105	0.0481	0.153
HSPB8	-0.282	0.875	0.0398	-0.034	0.0685
ATM	0.426	0.953	0.0477	-0.0125	0.0326
KALRN	0.86	1	0.0004	-0.166	0.0865
CDC73	-0.903	0.808	-0.122	0.0019	-0.0397
MST1R	0.415	0.952	-0.0929	-0.093	-0.0311
TGFBR3	0.86	1	-0.112	-0.154	0.0927
SGK2	-0.664	0.834	-0.045	-0.228	0.0486
TTK	0.86	1	0.0908	-0.0974	0.000103
YES1	0.699	0.982	0.1	-0.0318	0.0186
KCNH8	0.494	0.96	-0.0536	0.0266	0.11
PFKL	0.86	1	-0.116	-0.148	-0.147
PAPSS2	0.734	0.986	-0.0441	-0.0487	-0.0628
ADK	0.86	1	-0.047	0.097	-0.0202
DLG3	0.86	1	-0.0159	-0.0414	-0.0591
CAMKV	0.86	1	0.0594	-0.0397	0.084
PRKACA	0.337	0.943	-0.0639	-0.0659	-0.0777
CPNE3	0.86	1	-0.078	-0.166	0.0911
STK24	-0.385	0.864	-0.116	-0.239	0.113
MLKL	-0.679	0.832	-0.191	-0.116	-0.125
AKT2	0.86	1	-0.0251	0.0593	0.133
CREBBP	0.182	0.926	0.0279	-0.0519	0.0112
POLR2B	-2.12	0.676	-0.111	-0.258	-0.102
CSNK2A2	0.86	1	0.0912	0.188	0.16
RPS6KA4	-0.963	0.801	-0.143	0.0115	-0.0149
PRPS1L1	0.187	0.927	-0.135	-0.197	-0.205
BPTF	0.381	0.948	0.116	0.0284	0.0342
TRIO	-0.11	0.894	-0.0178	-0.0854	0.0197
MOK	0.86	1	-0.017	-0.166	-0.0398
GALK1	-0.783	0.821	0.0305	0.0946	0.0583
PRKAB1	0.0799	0.915	-0.079	-0.136	-0.0398
CDK4	0.453	0.956	-0.00398	-0.0398	-0.137

Part of the list above, reduced to “viability z-score, no drug”:
POLR2B: -2.12
CSNK2A2: 0.86
RPS6KA4: -0.963
PRPS1L1: 0.187
BPTF: 0.381
TRIO: -0.11
